Assay results reported in paper PMC3857619.
Results are given in words; binding and its absence hold for the method and conditions named. For some assays here: Binding seen in cells or lysates may run through a third protein. Some binding calls cover weakened binding; strength is not graded here.

Chains of the proteins cited; added tags and fusions are not shown.
UniProt P26599: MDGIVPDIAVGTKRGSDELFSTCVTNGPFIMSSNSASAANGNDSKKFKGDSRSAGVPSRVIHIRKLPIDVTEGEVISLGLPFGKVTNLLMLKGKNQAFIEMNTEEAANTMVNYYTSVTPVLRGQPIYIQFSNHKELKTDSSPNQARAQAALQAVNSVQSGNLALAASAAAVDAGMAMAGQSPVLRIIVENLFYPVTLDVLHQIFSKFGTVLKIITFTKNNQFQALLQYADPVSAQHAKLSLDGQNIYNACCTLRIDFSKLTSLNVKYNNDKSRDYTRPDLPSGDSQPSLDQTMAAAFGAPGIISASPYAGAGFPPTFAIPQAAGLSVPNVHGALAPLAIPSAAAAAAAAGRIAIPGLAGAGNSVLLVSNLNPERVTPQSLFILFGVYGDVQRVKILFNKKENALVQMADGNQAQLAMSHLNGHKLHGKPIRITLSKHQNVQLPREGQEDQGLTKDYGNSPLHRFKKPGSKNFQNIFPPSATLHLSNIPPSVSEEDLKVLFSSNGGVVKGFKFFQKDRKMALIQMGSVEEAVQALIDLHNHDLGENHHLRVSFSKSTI

Key:
[1] = target: polypyrimidine tract-binding protein (human (endogenous in MCF7 and HeLa)) (UniProt P26599); experiment: co-IP; anti-PTB (BB7) on protein A/G beads, nuclear lysates of MCF7 cells, control or TRAIL-treated; western blot
recombinant PTB = recombinant PTB (UniProt P26599); experiment: co-IP; purified recombinant proteins incubated with rePTB in an equal molar ratio; isolated on A/G sepharose beads bound to anti-PTB (BB7), extensive washing; western blot; both purified

Row | binding [1] | binding (recombinant PTB) | Binder
1 | binds |  | NONO/p54nrb (protein, UniProt Q15233 1-471) MQSNKTFNLEKQNHTPRKHHQHHHQQQHHQQQQQQPPPPPIPANGQQASSQNEGLTIDLKNFRKPGEKTFTQRSRLFVGNLPPDITEEEMRKLFEKYGKAGEVFIHKDKGFGFIRLETRTLAEIAKVELDNMPLRGKQLRVRFACHSASLTVRNLPQYVSNELLEEAFSVFGQVERAVVIVDDRGRPSGKGIVEFSGKPAARKALDRCSEGSFLLTTFPRPVTVEPMDQLDDEEGLPEKLVIKNQQFHKEREQPPRFAQPGSFEYEYAMRWKALIEMEKQQQDQVDRNIKEAREKLEMEMEAARHEHQVMLMRQDLMRRQEELRRMEELHNQEVQKRKQLELRQEEERRRREEEMRRQQEEMMRRQQEGFKGTFPDAREQEIRMGQMAMGGAMGINNRGAMPPAPVPAGTPAPPGPATMMPDGTLGLTPPTTERFGQAATMEGIGAIGGTPPAFNRAAPGAEFAPNKRRRY
2 |  | binds | recombinant NONO/p54nrb (protein, UniProt Q15233 1-471) MQSNKTFNLEKQNHTPRKHHQHHHQQQHHQQQQQQPPPPPIPANGQQASSQNEGLTIDLKNFRKPGEKTFTQRSRLFVGNLPPDITEEEMRKLFEKYGKAGEVFIHKDKGFGFIRLETRTLAEIAKVELDNMPLRGKQLRVRFACHSASLTVRNLPQYVSNELLEEAFSVFGQVERAVVIVDDRGRPSGKGIVEFSGKPAARKALDRCSEGSFLLTTFPRPVTVEPMDQLDDEEGLPEKLVIKNQQFHKEREQPPRFAQPGSFEYEYAMRWKALIEMEKQQQDQVDRNIKEAREKLEMEMEAARHEHQVMLMRQDLMRRQEELRRMEELHNQEVQKRKQLELRQEEERRRREEEMRRQQEEMMRRQQEGFKGTFPDAREQEIRMGQMAMGGAMGINNRGAMPPAPVPAGTPAPPGPATMMPDGTLGLTPPTTERFGQAATMEGIGAIGGTPPAFNRAAPGAEFAPNKRRRY
